From publication PMC2873443

Tested on: NF-kB p65 (RelA), subunit of p50-p65 + NF-kB p50, subunit of p50-p65
Assay: EMSA supershift
Details: nuclear extract, basal and PMA-induced, basal higher in K562/Adr; EMSA: nuclear extract incubated 25 min with 32P probe; 6% PAGE, 0.5x TBE pH 8; temperature and salt not stated; protein in an extract; label: 32P (Klenow, [alpha-32P]-dCTP)

Q: Does “AGCTATGTGGGTTTTCCCATGAGC (double strand) [IL6 promoter NF-kB oligonucleotide]” bind?
A: binds

For at least one entry, the source does not settle the construct or the ends of the probe. At least one result comes from cells or an extract, where the contact may be indirect.
